Source: the supplement of paper PMC8007513
The other results are listed elsewhere or left out. Repeats are few or missing, and single values can be far off.

System: Saccharomyces cerevisiae BY4743
Experiment: growth (OD600) with compound + IPBC relative to untreated control; higher = less growth inhibition
Conditions: compound concentration: 133 uM; IPBC concentration: 0.5 ug/ml; 20 h
Procedure: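 NMCCC compounds (133 uM) combined with IPBC (0.5 ug/ml) against Saccharomyces cerevisiae BY4743 in YPD, 96-well plates. Growth was read as OD600 at 20 h and expressed as % of the untreated control. Single pass.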

SMILES	growth [%]
CC(C)C\C1=N\N/2C(=O)\C=C(COC3=CC=C(NC(C)=O)C=C3)/N=C2S1 + CCCCNC(=O)OCC#CI [3-iodo-2-propynyl butylcarbamate (IPBC)]	81.5
O=C(NCc1ccc(F)cc1)c1sccc1S(=O)(=O)NC1CC1 + CCCCNC(=O)OCC#CI [3-iodo-2-propynyl butylcarbamate (IPBC)]	104
CC1=C(Cl)C=CC=C1NC(=O)C\C2=N\[S](=O)(=O)C3=CC=CC=C3N2 + CCCCNC(=O)OCC#CI [3-iodo-2-propynyl butylcarbamate (IPBC)]	102
Cc1ccn(CCC(=O)NC(C)Cc2ccco2)n1 (configuration not stated) + CCCCNC(=O)OCC#CI [3-iodo-2-propynyl butylcarbamate (IPBC)]	95.5
COC1=CC=CC(=C1)\C2=C\CN(C(=O)N2)C3=CC=CC=C3O + CCCCNC(=O)OCC#CI [3-iodo-2-propynyl butylcarbamate (IPBC)]	102
CCOc1ccc(CNC(=O)CC(c2ccccc2C)n2cccc2)cc1OC (configuration not stated) + CCCCNC(=O)OCC#CI [3-iodo-2-propynyl butylcarbamate (IPBC)]	100
COc1ccc(CN(C)C(=O)c2cc(Br)ccc2F)c(OC)c1OC + CCCCNC(=O)OCC#CI [3-iodo-2-propynyl butylcarbamate (IPBC)]	89.2
COC(=O)c1cc(OCC(=O)c2ccc[nH]2)cc(C(=O)OC)c1 + CCCCNC(=O)OCC#CI [3-iodo-2-propynyl butylcarbamate (IPBC)]	95.4
Cc1nn(-c2ccccc2)c(C)c1NC(=O)Cn1cnnn1 + CCCCNC(=O)OCC#CI [3-iodo-2-propynyl butylcarbamate (IPBC)]	93.2
Cc1ccc2oc(SCC(=O)NC(C)(C)C)nc2n1 + CCCCNC(=O)OCC#CI [3-iodo-2-propynyl butylcarbamate (IPBC)]	104
Cc1ccc(CNC(=O)Cc2cn3ccsc3n2)n1C + CCCCNC(=O)OCC#CI [3-iodo-2-propynyl butylcarbamate (IPBC)]	100
CCC(C(=O)N1CCOCC1)n1c(C(=O)OC)cc2sc(C)cc21 (configuration not stated) + CCCCNC(=O)OCC#CI [3-iodo-2-propynyl butylcarbamate (IPBC)]	110
CC1CCN(C(=O)c2csc(S(=O)(=O)N(C)C3CCCCC3)c2)CC1 + CCCCNC(=O)OCC#CI [3-iodo-2-propynyl butylcarbamate (IPBC)]	98.7
Cc1cc2nc(O)c(O)nc2cc1S(=O)(=O)NCc1ccco1 + CCCCNC(=O)OCC#CI [3-iodo-2-propynyl butylcarbamate (IPBC)]	112
COC(=O)\C1=C\N(CC2=CC=CS2)\C=C(/C1C3=CC=CC=C3OC(C)C)C(=O)OC + CCCCNC(=O)OCC#CI [3-iodo-2-propynyl butylcarbamate (IPBC)]	93.3
COC(=O)C1Cc2ccccc2CN1C(=O)CN(C)CCOc1ccccc1 (configuration not stated) + CCCCNC(=O)OCC#CI [3-iodo-2-propynyl butylcarbamate (IPBC)]	105
CN(CC(=O)Nc1cccc(Cl)c1)S(=O)(=O)c1ccc(-c2ccc(O)nn2)s1 + CCCCNC(=O)OCC#CI [3-iodo-2-propynyl butylcarbamate (IPBC)]	96
CCC(C)(C)C1CCC(NC(=O)c2ccc(N3CCOCC3)nc2)CC1 (configuration not stated) + CCCCNC(=O)OCC#CI [3-iodo-2-propynyl butylcarbamate (IPBC)]	110
Cc1cccc(Nc2nnc(SCC(=O)c3ccc[nH]3)s2)c1 + CCCCNC(=O)OCC#CI [3-iodo-2-propynyl butylcarbamate (IPBC)]	78.3
CCOC(=O)c1sc(NC(=O)C(F)(F)F)c(C(=O)OC)c1C + CCCCNC(=O)OCC#CI [3-iodo-2-propynyl butylcarbamate (IPBC)]	105
Cc1ccc(-c2csc(NC(=O)C(C)C)c2C(=O)O)c(C)c1 + CCCCNC(=O)OCC#CI [3-iodo-2-propynyl butylcarbamate (IPBC)]	95.4
COC(=O)c1ccn(CC(=O)Nc2ccc(C)cc2C)n1 + CCCCNC(=O)OCC#CI [3-iodo-2-propynyl butylcarbamate (IPBC)]	87.5

Not a retest: entries from further up.
SMILES	growth [%]
CCOC(=O)c1sc(NC(=O)C(F)(F)F)c(C(=O)OC)c1C + CCCCNC(=O)OCC#CI [3-iodo-2-propynyl butylcarbamate (IPBC)]	105
Cc1ccc(-c2csc(NC(=O)C(C)C)c2C(=O)O)c(C)c1 + CCCCNC(=O)OCC#CI [3-iodo-2-propynyl butylcarbamate (IPBC)]	95.4
